For at least one compound, name, drawing or mass did not settle the structure.
Experiments:
Clostridium difficile = experiment: Expected efficacy of antibiotic agents; conditions: Gram: anaer
Clostridium perfringens = conditions: Gram: anaer
Chlamydia psittaci = conditions: Gram: n/a
Brucella species = conditions: Gram: neg
Francisella tularensis = conditions: Gram: neg
Legionella pneumophila = conditions: Gram: neg
Rickettsiae = conditions: Gram: neg
Shigella boydii = experiment: Expected efficacy of antibiotic agents; conditions: Gram: neg
Shigella flexneri = experiment: Expected efficacy of antibiotic agents; conditions: Gram: neg
Shigella sonnei = experiment: Expected efficacy of antibiotic agents; conditions: Gram: neg
Yersinia pestis = conditions: Gram: neg

Row | SMILES | Expected efficacy against Clostridium difficile (Clostridium difficile) | Expected efficacy against Clostridium perfringens (Clostridium perfringens) | Expected efficacy against Chlamydia psittaci (Chlamydia psittaci) | Expected efficacy against Brucella species (Brucella species) | Expected efficacy against Francisella tularensis (Francisella tularensis) | Expected efficacy against Legionella pneumophila (Legionella pneumophila) | Expected efficacy against Rickettsiae (Rickettsiae) | Expected efficacy against Shigella boydii (Shigella boydii) | Expected efficacy against Shigella flexneri (Shigella flexneri) | Expected efficacy against Shigella sonnei (Shigella sonnei) | Expected efficacy against Yersinia pestis (Yersinia pestis)
1 | CCC[C@@H]1C[C@@H](C(=O)N[C@@H]([C@H]2O[C@H](SC)[C@H](O)[C@@H](O)[C@H]2O)[C@H](C)Cl)N(C)C1 [Clindamycin] | ± | yes-partial | no | no | no | no | no | no | no | no | no
2 | C[C@H]1c2cccc(O)c2C(=O)C2=C(O)[C@]3(O)C(=O)C(C(N)=O)=C(O)[C@@H](N(C)C)[C@@H]3[C@@H](O)[C@@H]21 [Doxycyline] | ± | – | – | – | – | – | – | ± | ± | ± | –
3 | C[C@H]1COc2c(N3CCN(C)CC3)c(F)cc3c(=O)c(C(=O)O)cn1c23 [Levofloxacin] | no | – | – | ± | yes | yes | – | – | yes | yes | yes

Reference: patent US9717748B2, “Compositions and methods for treating an infection” (CMPD LICENSING, LLC, priority 2015, dated 2017)
